Reference: article PMC4365487
Results are given in words; binding and its absence hold for the method and conditions named. Binding seen in cells or lysates may run through a third protein. Some binding calls cover weakened binding; strength is not graded here. Where a sequence is shown, tags or fusion partners need not be part of it.

Legend:
[1] = target: T1, Flag-Dvl2 (Dishevelled 2) (UniProt Q60838); assay: co-IP; lysates of COS7 cells co-expressing Shroom3L and Flag-Dvl2 in IP buffer (40 mM Tris pH 8.0, 5 mM EDTA, 10 mM EGTA, 100 mM NaCl, 0.5% Nonidet P-40); mouse anti-flag antibody overnight at 4°C, anti-mouse agarose beads; blot with anti-Shroom3 and anti-flag
T1 sequence: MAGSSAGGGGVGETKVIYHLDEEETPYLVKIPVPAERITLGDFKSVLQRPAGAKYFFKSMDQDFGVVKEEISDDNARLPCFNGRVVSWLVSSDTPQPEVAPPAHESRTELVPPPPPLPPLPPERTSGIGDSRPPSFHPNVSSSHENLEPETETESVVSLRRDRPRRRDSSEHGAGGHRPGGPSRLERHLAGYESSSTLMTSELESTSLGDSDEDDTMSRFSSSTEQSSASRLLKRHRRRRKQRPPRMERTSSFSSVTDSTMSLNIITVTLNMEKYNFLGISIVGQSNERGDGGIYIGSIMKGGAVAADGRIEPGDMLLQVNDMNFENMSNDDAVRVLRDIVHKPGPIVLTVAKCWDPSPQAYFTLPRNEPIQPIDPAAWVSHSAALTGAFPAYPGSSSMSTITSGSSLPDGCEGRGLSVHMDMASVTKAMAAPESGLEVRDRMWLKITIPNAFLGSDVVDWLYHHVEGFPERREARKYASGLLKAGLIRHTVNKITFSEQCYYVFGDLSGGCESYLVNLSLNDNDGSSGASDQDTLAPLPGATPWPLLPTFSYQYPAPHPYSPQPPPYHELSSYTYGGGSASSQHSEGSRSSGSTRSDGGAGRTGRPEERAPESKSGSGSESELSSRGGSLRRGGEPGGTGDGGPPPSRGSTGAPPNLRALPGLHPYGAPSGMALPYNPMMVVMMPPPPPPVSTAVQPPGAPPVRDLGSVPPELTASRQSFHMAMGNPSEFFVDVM

[2] = target: T2, GST-Shroom3 286-881 (mouse) (UniProt Q9QXN0); assay: pull-down; GST-Shroom3 286-881 bound to beads incubated overnight with pre-cleared lysates of COS7 cells transiently expressing flag-Dvl2; washed in IP buffer; anti-Flag western blot of supernatant and pellet; only the target purified
T2 sequence: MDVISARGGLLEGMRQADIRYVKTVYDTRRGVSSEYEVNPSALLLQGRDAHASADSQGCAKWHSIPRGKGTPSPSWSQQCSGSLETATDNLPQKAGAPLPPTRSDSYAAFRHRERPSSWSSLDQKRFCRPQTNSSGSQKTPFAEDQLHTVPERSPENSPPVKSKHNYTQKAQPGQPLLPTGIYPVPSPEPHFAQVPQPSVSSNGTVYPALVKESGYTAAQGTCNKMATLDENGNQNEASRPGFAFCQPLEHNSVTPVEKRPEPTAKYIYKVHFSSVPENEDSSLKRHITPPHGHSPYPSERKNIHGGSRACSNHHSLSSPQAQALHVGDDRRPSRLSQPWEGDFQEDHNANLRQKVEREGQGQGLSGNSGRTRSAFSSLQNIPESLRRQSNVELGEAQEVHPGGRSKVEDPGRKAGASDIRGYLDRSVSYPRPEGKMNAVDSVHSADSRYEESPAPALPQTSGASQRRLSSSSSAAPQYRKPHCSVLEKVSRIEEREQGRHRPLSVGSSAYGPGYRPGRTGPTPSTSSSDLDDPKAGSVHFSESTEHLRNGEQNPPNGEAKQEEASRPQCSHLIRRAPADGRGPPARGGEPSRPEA

Molecule: Shroom3L (full length Shroom3) (from UniProt Q9QXN0 1-1986)
- binding [1]: binds

B1: Flag-Dvl2 (Dishevelled 2) (protein, UniProt Q60838 1-736)
chain: T1 sequence
- binding [2]: binds
